Values quoted from earlier work in patent US20210038587A1, “METHODS AND COMPOSITIONS FOR TREATING NON-ERK MAPK PATHWAY INHIBITOR-RESISTANT CANCERS” (BIOMED VALLEY DISCOVERIES, INC., priority 2013, published 2021).
Some entries share one result that the patent states for a list of compounds.

System: BRAF^V600-mutant melanoma
Conditions: phase III, single agent versus dacarbazine; cited from earlier work

In the case of CC(C)(C)c1nc(-c2cccc(NS(=O)(=O)c3c(F)cccc3F)c2F)c(-c2ccnc(N)n2)s1 [Dabrafenib], the “median progression-free survival (PFS)” value is listed as 5.1-5.3 months.
